This is an account of results in patent US20220213209A1.

Results are given in words; binding and its absence hold for the method and conditions named. A result given as binding can be weak or reduced; the word gives no strength.

The experiment deals with macaca Cynomolgus GITR (Macaca cynomolgus). Nature of the experiment: BLI OctetRed 96.

B1: BCD166-01-014 (antibody, human IgG1, lambda, V domains shown)
VH: QVQLVQSGGGLVQPGGSLRLSCAASGFTFSYYWMYWVRQAPGKGLEWVSAISWNGGRTYYAESMKGRFTISRDNAQNTLYLQMNSLKSEDTAVYYCAKNRYYSDPNYGMNLWGKGTTVTVSS
VL: QSALTQPASVSGSPGQSITISCTGTSTDIGTYKYISWYQQHPGKAPKLIIYGVSHRPSGVSDRFSGSKSDNTASLTISGLQAEDEADYYCSSYTSSGTVVFGGGTKVTVLG
Regarding B1, the binding result was “binds”.
